# In the supplement of paper PMC10849652:
# By UniProt entry, the sequences of proteins in these tests, tags left out. Where a name states a change or a piece, a line headed by the entry shows the natural chain unless it says otherwise.
# UniProt O43909: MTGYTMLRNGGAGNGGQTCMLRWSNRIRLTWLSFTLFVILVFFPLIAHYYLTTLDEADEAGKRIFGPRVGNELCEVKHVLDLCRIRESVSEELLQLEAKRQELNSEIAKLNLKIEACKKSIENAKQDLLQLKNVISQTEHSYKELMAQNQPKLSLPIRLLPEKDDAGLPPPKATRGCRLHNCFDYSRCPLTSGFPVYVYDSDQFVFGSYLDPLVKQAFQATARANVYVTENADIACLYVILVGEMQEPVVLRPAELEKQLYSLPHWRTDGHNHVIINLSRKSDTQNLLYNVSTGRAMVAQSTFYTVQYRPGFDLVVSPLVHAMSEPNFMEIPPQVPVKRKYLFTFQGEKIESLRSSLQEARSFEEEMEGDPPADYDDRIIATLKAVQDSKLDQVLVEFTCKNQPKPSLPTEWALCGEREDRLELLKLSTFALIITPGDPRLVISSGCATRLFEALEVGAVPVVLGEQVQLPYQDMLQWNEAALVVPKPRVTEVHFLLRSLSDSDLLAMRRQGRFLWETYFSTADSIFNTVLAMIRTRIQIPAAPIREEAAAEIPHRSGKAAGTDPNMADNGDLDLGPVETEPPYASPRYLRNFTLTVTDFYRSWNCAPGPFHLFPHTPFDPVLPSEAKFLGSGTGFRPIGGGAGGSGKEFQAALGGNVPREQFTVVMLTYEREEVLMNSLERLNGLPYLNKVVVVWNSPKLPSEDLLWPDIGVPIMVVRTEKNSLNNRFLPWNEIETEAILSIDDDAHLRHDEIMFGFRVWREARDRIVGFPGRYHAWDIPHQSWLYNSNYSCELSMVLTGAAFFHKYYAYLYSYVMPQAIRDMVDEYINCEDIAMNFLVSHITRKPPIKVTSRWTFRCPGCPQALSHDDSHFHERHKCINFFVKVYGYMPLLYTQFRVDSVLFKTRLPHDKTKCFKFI
# UniProt Q2NKX8: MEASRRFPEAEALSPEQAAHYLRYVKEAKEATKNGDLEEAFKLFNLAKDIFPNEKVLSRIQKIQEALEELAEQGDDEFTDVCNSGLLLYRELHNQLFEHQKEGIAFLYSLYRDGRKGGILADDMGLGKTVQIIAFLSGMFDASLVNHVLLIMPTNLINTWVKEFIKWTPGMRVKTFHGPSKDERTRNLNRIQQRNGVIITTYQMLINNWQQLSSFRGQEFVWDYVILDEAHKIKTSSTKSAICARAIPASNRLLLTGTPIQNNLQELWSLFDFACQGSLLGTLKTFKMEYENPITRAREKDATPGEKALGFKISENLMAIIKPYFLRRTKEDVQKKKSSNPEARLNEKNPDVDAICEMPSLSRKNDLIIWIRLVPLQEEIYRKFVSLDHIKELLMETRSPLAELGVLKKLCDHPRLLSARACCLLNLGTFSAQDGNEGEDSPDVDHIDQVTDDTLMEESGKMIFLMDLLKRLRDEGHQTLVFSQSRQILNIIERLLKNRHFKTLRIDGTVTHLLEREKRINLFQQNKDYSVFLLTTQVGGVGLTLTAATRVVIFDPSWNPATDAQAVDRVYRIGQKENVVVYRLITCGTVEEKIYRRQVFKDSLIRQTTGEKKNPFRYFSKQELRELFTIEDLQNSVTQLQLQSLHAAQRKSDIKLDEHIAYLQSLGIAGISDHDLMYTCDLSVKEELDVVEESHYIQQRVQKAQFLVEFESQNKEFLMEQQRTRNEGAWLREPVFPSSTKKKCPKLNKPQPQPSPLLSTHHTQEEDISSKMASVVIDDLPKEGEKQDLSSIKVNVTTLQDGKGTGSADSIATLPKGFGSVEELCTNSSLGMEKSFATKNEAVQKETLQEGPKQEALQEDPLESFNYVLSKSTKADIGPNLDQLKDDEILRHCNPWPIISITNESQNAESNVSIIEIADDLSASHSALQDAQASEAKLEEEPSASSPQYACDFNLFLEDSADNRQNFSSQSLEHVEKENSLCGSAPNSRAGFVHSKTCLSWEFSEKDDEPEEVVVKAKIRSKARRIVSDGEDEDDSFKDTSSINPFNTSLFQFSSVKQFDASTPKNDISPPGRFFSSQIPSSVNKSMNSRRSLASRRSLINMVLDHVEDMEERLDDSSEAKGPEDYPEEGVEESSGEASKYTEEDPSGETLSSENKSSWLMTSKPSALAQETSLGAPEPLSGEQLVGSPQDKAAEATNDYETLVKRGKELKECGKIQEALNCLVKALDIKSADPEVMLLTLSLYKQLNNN
# UniProt Q03468, whole entry, looked up: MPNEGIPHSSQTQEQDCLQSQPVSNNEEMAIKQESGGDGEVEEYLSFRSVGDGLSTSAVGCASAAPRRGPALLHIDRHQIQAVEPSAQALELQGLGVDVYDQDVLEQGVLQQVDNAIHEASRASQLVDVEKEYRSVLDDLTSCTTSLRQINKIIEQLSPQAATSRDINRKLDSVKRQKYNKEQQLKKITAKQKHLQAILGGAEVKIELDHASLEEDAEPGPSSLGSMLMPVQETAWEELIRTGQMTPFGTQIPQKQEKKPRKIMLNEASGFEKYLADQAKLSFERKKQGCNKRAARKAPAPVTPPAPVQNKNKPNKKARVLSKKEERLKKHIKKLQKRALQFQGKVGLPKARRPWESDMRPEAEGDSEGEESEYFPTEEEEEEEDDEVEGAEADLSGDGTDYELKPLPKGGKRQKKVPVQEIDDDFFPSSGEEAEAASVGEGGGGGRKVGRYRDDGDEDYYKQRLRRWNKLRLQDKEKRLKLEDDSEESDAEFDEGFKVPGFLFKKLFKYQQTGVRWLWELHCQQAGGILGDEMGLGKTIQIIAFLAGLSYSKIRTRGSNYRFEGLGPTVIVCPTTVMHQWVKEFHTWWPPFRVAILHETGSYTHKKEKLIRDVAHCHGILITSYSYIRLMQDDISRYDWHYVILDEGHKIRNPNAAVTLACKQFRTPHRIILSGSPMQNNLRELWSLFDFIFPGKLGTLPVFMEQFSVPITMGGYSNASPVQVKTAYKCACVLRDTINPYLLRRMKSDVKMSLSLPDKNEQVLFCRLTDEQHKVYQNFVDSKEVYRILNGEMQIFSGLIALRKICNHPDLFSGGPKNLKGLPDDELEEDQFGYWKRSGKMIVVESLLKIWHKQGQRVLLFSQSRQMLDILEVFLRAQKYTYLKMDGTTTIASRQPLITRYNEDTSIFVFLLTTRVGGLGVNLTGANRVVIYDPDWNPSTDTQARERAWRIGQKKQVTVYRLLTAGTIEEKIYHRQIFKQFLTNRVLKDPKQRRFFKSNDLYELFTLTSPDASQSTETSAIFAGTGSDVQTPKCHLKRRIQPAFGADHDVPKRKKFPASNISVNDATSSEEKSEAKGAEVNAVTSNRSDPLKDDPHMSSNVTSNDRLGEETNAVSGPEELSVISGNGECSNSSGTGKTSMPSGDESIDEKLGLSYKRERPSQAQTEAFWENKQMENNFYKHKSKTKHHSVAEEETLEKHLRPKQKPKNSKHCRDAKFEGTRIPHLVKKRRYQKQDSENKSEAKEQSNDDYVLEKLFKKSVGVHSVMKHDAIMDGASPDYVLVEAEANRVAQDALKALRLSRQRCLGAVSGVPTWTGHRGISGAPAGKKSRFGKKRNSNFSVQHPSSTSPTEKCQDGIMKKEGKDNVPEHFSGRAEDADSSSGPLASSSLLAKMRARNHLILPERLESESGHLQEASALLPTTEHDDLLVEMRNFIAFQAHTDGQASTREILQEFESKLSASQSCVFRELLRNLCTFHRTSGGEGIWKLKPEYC
# UniProt Q9Y5Q0: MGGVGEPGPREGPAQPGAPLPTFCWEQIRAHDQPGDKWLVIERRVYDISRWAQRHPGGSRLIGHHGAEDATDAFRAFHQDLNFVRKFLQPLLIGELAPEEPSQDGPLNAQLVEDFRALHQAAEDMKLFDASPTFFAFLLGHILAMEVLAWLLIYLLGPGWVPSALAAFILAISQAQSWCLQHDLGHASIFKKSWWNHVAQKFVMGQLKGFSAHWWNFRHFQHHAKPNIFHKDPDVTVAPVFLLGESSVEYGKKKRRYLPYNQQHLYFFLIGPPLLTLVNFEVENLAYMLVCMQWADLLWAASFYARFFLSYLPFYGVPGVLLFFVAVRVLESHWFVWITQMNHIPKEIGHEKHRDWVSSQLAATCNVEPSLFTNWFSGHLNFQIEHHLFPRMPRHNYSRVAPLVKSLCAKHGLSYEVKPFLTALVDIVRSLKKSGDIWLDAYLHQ
# UniProt Q9HBU6: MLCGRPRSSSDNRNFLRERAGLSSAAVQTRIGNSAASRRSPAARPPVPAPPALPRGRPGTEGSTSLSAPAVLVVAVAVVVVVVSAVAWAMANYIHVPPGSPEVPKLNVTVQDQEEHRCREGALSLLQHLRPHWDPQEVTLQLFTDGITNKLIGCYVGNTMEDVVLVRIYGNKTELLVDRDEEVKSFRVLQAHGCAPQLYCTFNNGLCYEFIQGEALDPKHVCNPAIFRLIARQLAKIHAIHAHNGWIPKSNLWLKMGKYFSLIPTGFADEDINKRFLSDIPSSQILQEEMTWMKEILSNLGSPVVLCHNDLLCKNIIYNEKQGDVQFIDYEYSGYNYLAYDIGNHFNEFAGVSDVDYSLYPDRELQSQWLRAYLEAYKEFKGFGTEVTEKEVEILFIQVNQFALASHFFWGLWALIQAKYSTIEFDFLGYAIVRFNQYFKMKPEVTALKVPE
# UniProt Q96CS3: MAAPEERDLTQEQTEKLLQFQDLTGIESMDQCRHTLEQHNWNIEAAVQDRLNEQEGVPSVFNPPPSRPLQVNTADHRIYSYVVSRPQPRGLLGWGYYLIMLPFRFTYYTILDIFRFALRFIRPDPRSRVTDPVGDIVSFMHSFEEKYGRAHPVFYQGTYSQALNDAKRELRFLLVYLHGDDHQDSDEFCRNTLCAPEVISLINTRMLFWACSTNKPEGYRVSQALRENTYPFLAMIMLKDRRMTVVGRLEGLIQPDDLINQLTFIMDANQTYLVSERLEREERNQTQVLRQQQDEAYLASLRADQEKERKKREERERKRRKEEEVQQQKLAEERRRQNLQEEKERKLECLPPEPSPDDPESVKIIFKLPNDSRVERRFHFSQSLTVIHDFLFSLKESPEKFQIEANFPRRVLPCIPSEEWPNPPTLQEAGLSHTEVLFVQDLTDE
# UniProt Q9UBQ6: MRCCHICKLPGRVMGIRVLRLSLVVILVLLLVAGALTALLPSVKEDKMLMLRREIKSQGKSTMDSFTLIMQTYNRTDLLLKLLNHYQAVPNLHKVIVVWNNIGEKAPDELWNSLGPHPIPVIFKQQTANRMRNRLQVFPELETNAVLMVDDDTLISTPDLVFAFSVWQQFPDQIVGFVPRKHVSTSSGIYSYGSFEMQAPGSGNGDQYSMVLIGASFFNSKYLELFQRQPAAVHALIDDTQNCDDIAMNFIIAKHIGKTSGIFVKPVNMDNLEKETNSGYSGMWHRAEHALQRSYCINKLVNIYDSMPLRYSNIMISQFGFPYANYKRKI
# UniProt Q96A65: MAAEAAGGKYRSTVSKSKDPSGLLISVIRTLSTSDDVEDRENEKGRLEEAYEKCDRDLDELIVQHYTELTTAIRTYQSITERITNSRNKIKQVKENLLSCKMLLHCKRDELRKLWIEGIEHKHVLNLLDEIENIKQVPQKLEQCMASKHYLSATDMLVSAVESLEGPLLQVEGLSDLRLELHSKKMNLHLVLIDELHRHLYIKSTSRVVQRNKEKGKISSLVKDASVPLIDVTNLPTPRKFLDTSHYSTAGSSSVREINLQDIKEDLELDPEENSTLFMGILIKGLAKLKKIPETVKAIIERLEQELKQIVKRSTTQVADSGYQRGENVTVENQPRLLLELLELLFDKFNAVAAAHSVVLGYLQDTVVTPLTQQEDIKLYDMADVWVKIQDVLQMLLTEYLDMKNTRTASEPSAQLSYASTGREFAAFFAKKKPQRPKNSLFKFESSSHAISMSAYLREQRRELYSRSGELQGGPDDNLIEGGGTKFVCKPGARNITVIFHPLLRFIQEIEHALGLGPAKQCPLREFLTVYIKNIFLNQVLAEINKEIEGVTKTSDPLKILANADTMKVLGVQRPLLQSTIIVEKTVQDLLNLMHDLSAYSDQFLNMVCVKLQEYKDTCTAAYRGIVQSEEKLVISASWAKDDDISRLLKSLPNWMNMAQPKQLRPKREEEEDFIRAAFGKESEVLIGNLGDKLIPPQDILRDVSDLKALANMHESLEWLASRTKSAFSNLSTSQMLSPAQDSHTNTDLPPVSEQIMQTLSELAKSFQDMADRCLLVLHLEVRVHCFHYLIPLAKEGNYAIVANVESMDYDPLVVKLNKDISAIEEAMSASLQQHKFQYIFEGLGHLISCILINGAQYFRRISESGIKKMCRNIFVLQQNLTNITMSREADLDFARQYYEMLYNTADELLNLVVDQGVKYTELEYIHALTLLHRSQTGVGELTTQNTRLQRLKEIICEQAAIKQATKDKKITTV
# UniProt Q8N128: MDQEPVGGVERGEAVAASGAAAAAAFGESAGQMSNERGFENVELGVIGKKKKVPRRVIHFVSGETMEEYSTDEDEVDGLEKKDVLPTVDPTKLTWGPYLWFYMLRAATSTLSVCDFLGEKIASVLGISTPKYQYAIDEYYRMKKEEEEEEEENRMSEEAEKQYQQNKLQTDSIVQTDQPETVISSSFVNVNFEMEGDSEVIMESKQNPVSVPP
# This is one part of the list.
# How the values were obtained:
# Test in all cases: log2 fold change, soluble protein after heating vs DMSO (PISA); higher = thermal stabilisation; K562 cells, 10 uM, 30 min; active = over 0.2 and 3.5 SD of the protein, either way, in both replicates (recomputed)
# [1] = compound: CC[C@@H]1C(=O)N(C)c2cnc(Nc3ccc(C(=O)NC4CCN(C)CC4)cc3OC)nc2N1C1CCCC1
# Method in brief: (§1)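 K562 cells at 2×10^6 cells/mL were given 10 μM compound for 30 min. Aliquots then went through 3 min of heating across 48°C-58°C, were pooled, and were extracted in PBS with 0.5% NP-40 at 4°C, and the supernatant after 21,000xg for 90 min was quantified by TMTpro 16plex LC-MS/MS with channel sums equalised. Thermal stability relative to control samples, from duplicates, is given as log2 fold change.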
# volasertib = compound: CC[C@@H]1C(=O)N(C)c2cnc(Nc3ccc(C(=O)N[C@H]4CC[C@H](N5CCN(CC6CC6)CC5)CC4)cc3OC)nc2N1C(C)C [volasertib]
# Method in brief: as §1
# [2] = compound: CC[C@H](C)N1C=C(C2=C(C=C(C=C21)C3=CN=C(C=C3)N4CCNCC4)C(=O)NCC5=C(C=C(NC5=O)C)C)C
# Method in brief: as §1
# epoxomicin = compound: CC[C@H](C)[C@@H](C(=O)N[C@@H]([C@@H](C)O)C(=O)N[C@@H](CC(C)C)C(=O)[C@]1(CO1)C)NC(=O)[C@H]([C@@H](C)CC)N(C)C(=O)C [epoxomicin]
# Method in brief: as §1
# [3] = compound: CCn1cc(-c2ccnc3[nH]c(-c4cccc(CN(C)C)c4)cc23)c(-c2ccc(NC(=O)N(C)C)cc2)n1
# Method in brief: as §1
# [4] = compound: CN(C)CC(=O)Nc1ccc2[nH]c(=O)c3ccccc3c2c1
# Method in brief: as §1
# rosiglitazone = compound: CN(CCOC1=CC=C(C=C1)C[C@H]2C(=O)NC(=O)S2)C3=CC=CC=N3 (racemic) [rosiglitazone]
# Method in brief: as §1
# [5] = compound: CN1C2=C(C3=C1C(=O)N(N=C3)CC4=CC(=CC=C4)N)SC(=C2)S(=O)C
# Method in brief: as §1
# [6] = compound: CN1CCC(CNc2ccc3ncc(-c4cccc(OC(F)(F)F)c4)n3n2)CC1
# Method in brief: as §1
# saracatinib = compound: CN1CCN(CCOc2cc(OC3CCOCC3)c3c(Nc4c(Cl)ccc5c4OCO5)ncnc3c2)CC1 [saracatinib]
# Method in brief: as §1
# sotrastaurin = compound: CN1CCN(c2nc(C3=C(c4c[nH]c5ccccc45)C(=O)NC3=O)c3ccccc3n2)CC1 [sotrastaurin]
# Method in brief: as §1
# alvocidib = compound: CN1CC[C@H](c2c(O)cc(O)c3c(=O)cc(-c4ccccc4Cl)oc23)[C@H](O)C1 [alvocidib]
# Method in brief: as §1
# Tubastatin A = compound: CN1CCc2c(c3ccccc3n2Cc2ccc(C(=O)NO)cc2)C1 [Tubastatin A]
# Method in brief: as §1
# defactinib = compound: CNC(=O)c1ccc(Nc2ncc(C(F)(F)F)c(NCc3nccnc3N(C)S(C)(=O)=O)n2)cc1 [defactinib]
# Method in brief: as §1
# rucaparib = compound: CNCc1ccc(-c2[nH]c3cc(F)cc4c3c2CCNC4=O)cc1 [rucaparib]
# Method in brief: as §1
# [7] = compound: CNc1nc(-c2ccc3c(N)n[nH]c3c2)cc(N2C[C@@H](C(=O)NC3CCCCC3)CC[C@H]2C)n1
# Method in brief: as §1
# encorafenib = compound: COC(=O)N[C@@H](C)CNc1nccc(-c2cn(C(C)C)nc2-c2cc(Cl)cc(NS(C)(=O)=O)c2F)n1 [encorafenib]
# Method in brief: as §1
# [8] = compound: COC(=O)[C@H](CCSC)NC(=O)C1=C(C=C(C=C1)NC[C@H](CS)N)C2=CC=CC=C2
# Method in brief: as §1
# [9] = compound: CNC(=O)C1=CC=CC=C1NC2=NC(=NC=C2Cl)NC3=C(C=C(C=C3)N4CCOCC4)OC
# Method in brief: as §1
Target,log2 fold change [1],log2 fold change (volasertib),log2 fold change [2],log2 fold change (epoxomicin),log2 fold change [3],log2 fold change [4],log2 fold change (rosiglitazone),log2 fold change [5],log2 fold change [6],log2 fold change (saracatinib),log2 fold change (sotrastaurin),log2 fold change (alvocidib),log2 fold change (Tubastatin A),log2 fold change (defactinib),log2 fold change (rucaparib),log2 fold change [7],log2 fold change (encorafenib),log2 fold change [8],log2 fold change [9]
EXTL3 (UniProt O43909),inactive: -0.014,inactive: -0.003,inactive: 0.232,inactive: 0.166,inactive: -0.015,inactive: -0.013,inactive: -0.014,inactive: 0.073,inactive: 0.01,inactive: -0.088,inactive: 0.136,inactive: -0.117,inactive: -0.028,inactive: 0.037,inactive: 0.009,inactive: -0.127,inactive: 0.094,inactive: -0.016,
EXOC6 (UniProt Q8TAG9),inactive: -0.224,active: -0.443,inactive: 0.102,inactive: -0.06,inactive: 0.014,inactive: 0.033,,inactive: 0.06,inactive: -0.23,inactive: -0.02,inactive: -0.153,,inactive: 0.042,inactive: -0.061,inactive: 0.025,inactive: -0.015,inactive: 0.013,inactive: 0.009,inactive: 0.075
ERCC6L (UniProt Q2NKX8),inactive: 0.068,inactive: 0.008,inactive: 0.072,inactive: -0.149,inactive: 0.148,inactive: -0.048,inactive: 0.05,,inactive: -0.028,,inactive: -0.058,inactive: 0.047,inactive: 0.101,inactive: -0.096,inactive: -0.053,,inactive: 0.161,inactive: -0.173,
ERCC2 (UniProt P18074),inactive: -0.015,inactive: -0.258,inactive: 0.043,active: 0.326,inactive: -0.076,inactive: -0.019,,inactive: 0.013,inactive: -0.153,inactive: -0.016,inactive: -0.035,,inactive: 0.051,inactive: -0.094,inactive: -0.013,inactive: -0.027,inactive: 0.177,inactive: -0.005,inactive: -0.01
ERCC6 (UniProt Q03468),inactive: 0.072,inactive: -0.135,inactive: -0.06,inactive: 0.015,inactive: -0.091,inactive: 0.004,,inactive: -0.009,inactive: 0.08,inactive: -0.006,inactive: 0.169,,inactive: -0.093,inactive: 0.016,inactive: 0,inactive: -0.085,inactive: -0.088,inactive: 0.055,inactive: 0.126
FAM117A (UniProt Q9C073),inactive: 0.001,inactive: 0.129,inactive: 0.071,inactive: 0.091,inactive: -0.025,inactive: 0.028,,inactive: -0.008,inactive: -0.182,inactive: -0.019,inactive: 0.009,,inactive: 0.058,inactive: -0.141,inactive: -0.079,inactive: 0.083,inactive: -0.023,inactive: 0.009,active: -0.268
FADS3 (UniProt Q9Y5Q0),inactive: -0.02,inactive: 0.095,inactive: 0.013,inactive: -0.016,inactive: -0.116,inactive: -0.05,,inactive: -0.13,inactive: -0.231,inactive: 0.035,inactive: 0.037,,inactive: -0.061,inactive: 0.048,inactive: 0.024,inactive: -0.079,inactive: 0.02,inactive: 0.026,inactive: 0.026
ETNK1 (UniProt Q9HBU6),inactive: 0.021,inactive: -0.24,inactive: 0.021,inactive: 0.157,inactive: 0.059,inactive: 0.121,,inactive: -0.14,inactive: 0.041,inactive: -0.037,inactive: -0.045,,inactive: 0.092,inactive: -0.001,active: 0.295,inactive: -0.039,inactive: -0.007,inactive: -0.027,inactive: 0.053
EXOC1 (UniProt Q9NV70),inactive: -0.219,inactive: -0.44,inactive: 0.077,inactive: -0.012,inactive: 0.023,inactive: 0.084,,inactive: 0.1,inactive: -0.319,inactive: 0.013,inactive: -0.249,,inactive: 0.038,inactive: -0.074,inactive: 0.172,inactive: 0.066,inactive: 0.06,inactive: -0.081,inactive: -0.002
FAF2 (UniProt Q96CS3),inactive: -0.095,active: -0.322,inactive: 0.002,inactive: -0.046,inactive: 0.018,inactive: 0.037,,inactive: 0.016,inactive: -0.069,inactive: -0.084,inactive: -0.048,,inactive: -0.008,inactive: -0.011,inactive: 0.015,inactive: 0.021,inactive: 0.036,inactive: 0,inactive: 0.021
EPHX2 (UniProt P34913),inactive: 0.098,inactive: 0.117,inactive: -0.019,inactive: -0.012,inactive: -0.032,inactive: -0.015,,inactive: 0.066,inactive: 0.091,inactive: -0.009,inactive: 0.172,,inactive: 0.003,inactive: -0.002,inactive: 0.002,inactive: 0.216,inactive: 0.003,inactive: -0.011,inactive: -0.022
EXOC2 (UniProt Q96KP1),inactive: -0.13,inactive: -0.463,inactive: -0.041,inactive: 0,inactive: 0.044,inactive: 0.058,,inactive: 0.123,active: -0.386,inactive: -0.058,inactive: -0.214,,inactive: 0.044,inactive: -0.096,inactive: 0.136,inactive: -0.004,inactive: 0.126,inactive: -0.085,inactive: 0.064
EXTL2 (UniProt Q9UBQ6),inactive: 0.057,inactive: -0.052,inactive: 0.041,inactive: -0.035,inactive: -0.046,inactive: 0.06,,inactive: -0.001,inactive: -0.157,inactive: 0.157,inactive: 0.036,,inactive: -0.136,inactive: -0.145,inactive: 0.001,inactive: 0.052,inactive: -0.08,inactive: 0.13,inactive: -0.072
FAM114A2 (UniProt Q9NRY5),inactive: -0.094,inactive: -0.136,inactive: 0.046,inactive: 0.052,inactive: -0.059,inactive: 0.02,,inactive: -0.013,active: -0.29,inactive: 0.005,inactive: -0.048,,inactive: -0.019,inactive: -0.04,inactive: -0.022,inactive: -0.054,inactive: 0.008,inactive: 0.025,inactive: -0.001
EXOC4 (UniProt Q96A65),inactive: -0.145,active: -0.606,inactive: 0.095,inactive: 0.005,inactive: 0.021,inactive: 0.061,,inactive: 0.103,inactive: -0.243,inactive: -0.013,inactive: -0.224,,inactive: 0.058,inactive: -0.049,inactive: 0.183,inactive: 0.015,inactive: 0.14,inactive: 0.01,inactive: -0.04
FAM177A1 isoform 2 (UniProt Q8N128),inactive: -0.039,inactive: -0.108,inactive: 0.006,inactive: 0.045,inactive: 0.045,inactive: -0.012,,inactive: -0.023,active: -0.259,inactive: 0.092,inactive: -0.021,,inactive: 0.045,inactive: -0.054,inactive: 0.001,inactive: -0.042,inactive: -0.029,inactive: -0.065,inactive: -0.094
